From patent EP2420830B1
Results are given in words; binding and its absence hold for the method and conditions named. In cells and extracts the contact can be indirect. Some binding calls cover weakened binding; strength is not graded here.

Chains of the proteins cited; added tags and fusions are not shown. Residues count along the entry.
UniProt Q00610, residues 2-1675: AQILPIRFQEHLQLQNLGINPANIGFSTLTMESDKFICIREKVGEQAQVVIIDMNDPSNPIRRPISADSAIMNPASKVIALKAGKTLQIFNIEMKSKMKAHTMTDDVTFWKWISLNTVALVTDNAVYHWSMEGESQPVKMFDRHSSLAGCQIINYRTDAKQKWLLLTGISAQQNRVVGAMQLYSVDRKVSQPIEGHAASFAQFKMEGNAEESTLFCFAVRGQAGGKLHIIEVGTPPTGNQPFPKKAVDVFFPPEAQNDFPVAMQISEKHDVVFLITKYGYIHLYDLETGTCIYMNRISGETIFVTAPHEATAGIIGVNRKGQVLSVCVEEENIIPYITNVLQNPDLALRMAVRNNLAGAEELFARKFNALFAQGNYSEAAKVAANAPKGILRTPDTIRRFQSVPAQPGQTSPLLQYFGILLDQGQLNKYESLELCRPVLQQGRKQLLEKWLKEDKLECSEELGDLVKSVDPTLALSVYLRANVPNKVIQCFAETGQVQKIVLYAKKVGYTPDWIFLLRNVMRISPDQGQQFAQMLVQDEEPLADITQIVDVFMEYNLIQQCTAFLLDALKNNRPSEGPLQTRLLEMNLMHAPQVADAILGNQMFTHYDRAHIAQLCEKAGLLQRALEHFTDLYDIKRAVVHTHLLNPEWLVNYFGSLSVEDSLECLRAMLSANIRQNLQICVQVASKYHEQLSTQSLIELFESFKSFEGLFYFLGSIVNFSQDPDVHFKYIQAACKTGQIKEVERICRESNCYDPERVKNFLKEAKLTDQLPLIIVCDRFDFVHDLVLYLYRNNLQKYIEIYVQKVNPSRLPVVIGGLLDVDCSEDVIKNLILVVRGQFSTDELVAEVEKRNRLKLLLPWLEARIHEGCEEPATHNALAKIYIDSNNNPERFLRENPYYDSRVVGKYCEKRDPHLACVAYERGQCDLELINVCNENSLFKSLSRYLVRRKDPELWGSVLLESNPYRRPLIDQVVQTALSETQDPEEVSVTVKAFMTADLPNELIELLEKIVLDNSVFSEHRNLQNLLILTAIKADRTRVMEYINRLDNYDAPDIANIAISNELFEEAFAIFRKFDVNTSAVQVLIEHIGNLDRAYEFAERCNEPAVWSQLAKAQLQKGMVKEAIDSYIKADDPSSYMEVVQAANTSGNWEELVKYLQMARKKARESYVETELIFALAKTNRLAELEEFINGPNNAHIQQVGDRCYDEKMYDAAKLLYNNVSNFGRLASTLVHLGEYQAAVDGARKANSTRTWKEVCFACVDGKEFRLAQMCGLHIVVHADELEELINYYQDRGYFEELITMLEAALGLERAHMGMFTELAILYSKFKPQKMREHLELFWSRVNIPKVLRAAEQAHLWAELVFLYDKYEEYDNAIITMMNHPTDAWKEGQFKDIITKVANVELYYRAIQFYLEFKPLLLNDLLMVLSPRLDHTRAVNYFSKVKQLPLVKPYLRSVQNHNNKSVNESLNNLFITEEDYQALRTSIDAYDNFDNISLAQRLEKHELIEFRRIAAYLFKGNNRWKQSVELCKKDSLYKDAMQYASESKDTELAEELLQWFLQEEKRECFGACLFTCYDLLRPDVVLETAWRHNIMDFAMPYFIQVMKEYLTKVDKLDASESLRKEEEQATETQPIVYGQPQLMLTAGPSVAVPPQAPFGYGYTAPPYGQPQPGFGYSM

Molecular target: clathrin (from HeLa cell lysate) (human (HeLa cells)) (UniProt Q00610)
Test: GST pull-down from HeLa cell lysate, immunoblot

- binding: binds
Substance: GST fusion protein of the CIC-4 amino-terminal domain (CIC-4-NT, human aa 1-67) (from UniProt P08515 1-218; P51793 1-67)
